Values from PubChem BioAssay AID652243 (Drosophila RNAi Screening Center, 2013).
The screen tested about 24,000 reagents; this is an unselected part of those that have a named target and a result. Of all reagents, 246 (1%) were called active. 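Plates not normalised; calls are printed but the firefly/Renilla ratio behind them is not deposited; fold cut for lowering reported inconsistently.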 Raw values vary from plate to plate and are shown uncorrected. A plus sign joins genes that one reagent is predicted to hit. Not given: the amount of reagent.

Purpose: 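Knock-downs that decrease or increase androgen receptor reporter signal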 (primary screen)
System: Drosophila S2R+ cells
Reagent: long dsRNA against Drosophila genes
Duration: 72 h (48 h, then 24 h hormone)
Conditions: synthetic androgen R1881 at 10 nM for 24 h
Read-out: 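Firefly light from an androgen-responsive reporter and Renilla control light per well, raw and unnormalised, for each of two replicates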
Scale: firefly reporter light: higher = more light from androgen-responsive reporter; Renilla control light: higher = more constitutive control signal (cell number, transfection)
Hit rule: 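Across duplicate plates, a knock-down whose log firefly/Renilla ratio shifted a set fold down or up from the GFP/LacZ control mean was a hit; the downward cut appears as both 1.5 and 3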
Calls: active = hit: reporter lowered or raised; inactive = no hit

asRNA:CR43259 + CG31089 [DRSC15934]: firefly reporter light, replicate 1 = 1.46e5; firefly reporter light, replicate 2 = 1.65e5; Renilla control light, replicate 1 = 2.58e6; Renilla control light, replicate 2 = 2.40e6; call = inactive
Dis3l2 [DRSC08496]: firefly reporter light, replicate 1 = 1.49e6; firefly reporter light, replicate 2 = 7.04e5; Renilla control light, replicate 1 = 1.40e6; Renilla control light, replicate 2 = 1.19e6; call = inactive
CG14820 [DRSC10191]: firefly reporter light, replicate 1 = 2.56e5; firefly reporter light, replicate 2 = 1.72e5; Renilla control light, replicate 1 = 3.28e6; Renilla control light, replicate 2 = 1.95e6; call = inactive
CG1637 [DRSC18865]: firefly reporter light, replicate 1 = 1.52e6; firefly reporter light, replicate 2 = 6.25e5; Renilla control light, replicate 1 = 2.85e6; Renilla control light, replicate 2 = 8.71e5; call = inactive
CG1637 [DRSC19748]: firefly reporter light, replicate 1 = 81479; firefly reporter light, replicate 2 = 82126; Renilla control light, replicate 1 = 5.66e5; Renilla control light, replicate 2 = 6.15e5; call = inactive
CG1637 [DRSC19749]: firefly reporter light, replicate 1 = 2.44e5; firefly reporter light, replicate 2 = 2.46e5; Renilla control light, replicate 1 = 2.58e6; Renilla control light, replicate 2 = 2.24e6; call = inactive
CG1637 [DRSC29080]: firefly reporter light, replicate 1 = 3.63e5; firefly reporter light, replicate 2 = 3.10e5; Renilla control light, replicate 1 = 1.10e6; Renilla control light, replicate 2 = 1.38e6; call = inactive
Phyhd1 [DRSC14911]: firefly reporter light, replicate 1 = 2.04e5; firefly reporter light, replicate 2 = 1.93e5; Renilla control light, replicate 1 = 3.22e6; Renilla control light, replicate 2 = 2.87e6; call = inactive
Phyhd1 [DRSC26408]: firefly reporter light, replicate 1 = 2.50e5; firefly reporter light, replicate 2 = 2.87e5; Renilla control light, replicate 1 = 8.20e5; Renilla control light, replicate 2 = 8.30e5; call = inactive
Ugt317A1 [DRSC04470]: firefly reporter light, replicate 1 = 3.10e5; firefly reporter light, replicate 2 = 2.83e5; Renilla control light, replicate 1 = 2.22e6; Renilla control light, replicate 2 = 2.48e6; call = inactive
CG6689 [DRSC16095]: firefly reporter light, replicate 1 = 61677; firefly reporter light, replicate 2 = 76681; Renilla control light, replicate 1 = 3.83e5; Renilla control light, replicate 2 = 3.27e5; call = inactive
CG6689 [DRSC28313]: firefly reporter light, replicate 1 = 4.18e5; firefly reporter light, replicate 2 = 6.40e5; Renilla control light, replicate 1 = 1.13e6; Renilla control light, replicate 2 = 1.47e6; call = inactive
TTLL3A [DRSC02143]: firefly reporter light, replicate 1 = 1.77e5; firefly reporter light, replicate 2 = 1.68e5; Renilla control light, replicate 1 = 2.00e6; Renilla control light, replicate 2 = 1.70e6; call = inactive
TTLL3A [DRSC28462]: firefly reporter light, replicate 1 = 5.66e5; firefly reporter light, replicate 2 = 6.48e5; Renilla control light, replicate 1 = 6.39e5; Renilla control light, replicate 2 = 9.73e5; call = inactive
corolla [DRSC20102]: firefly reporter light, replicate 1 = 87647; firefly reporter light, replicate 2 = 1.16e5; Renilla control light, replicate 1 = 8.30e5; Renilla control light, replicate 2 = 8.85e5; call = inactive
CG42323 [DRSC19629]: firefly reporter light, replicate 1 = 7.38e5; firefly reporter light, replicate 2 = 6.97e5; Renilla control light, replicate 1 = 3.97e6; Renilla control light, replicate 2 = 4.08e6; call = inactive
CG42323 [DRSC21397]: firefly reporter light, replicate 1 = 7.05e5; firefly reporter light, replicate 2 = 6.47e5; Renilla control light, replicate 1 = 1.55e6; Renilla control light, replicate 2 = 1.33e6; call = inactive
mRpL4 [DRSC03562]: firefly reporter light, replicate 1 = 9.90e5; firefly reporter light, replicate 2 = 9.19e5; Renilla control light, replicate 1 = 2.02e6; Renilla control light, replicate 2 = 1.63e6; call = inactive
sotv + CG10731 [DRSC05930]: firefly reporter light, replicate 1 = 87034; firefly reporter light, replicate 2 = 1.11e5; Renilla control light, replicate 1 = 1.71e6; Renilla control light, replicate 2 = 1.71e6; call = inactive
sotv + CG10731 [DRSC05997]: firefly reporter light, replicate 1 = 74258; firefly reporter light, replicate 2 = 1.21e5; Renilla control light, replicate 1 = 1.31e6; Renilla control light, replicate 2 = 1.31e6; call = inactive
Nup37 [DRSC14419]: firefly reporter light, replicate 1 = 1.82e5; firefly reporter light, replicate 2 = 2.60e5; Renilla control light, replicate 1 = 2.20e6; Renilla control light, replicate 2 = 2.36e6; call = inactive
Tsp29Fa [DRSC03232]: firefly reporter light, replicate 1 = 1.90e5; firefly reporter light, replicate 2 = 2.04e5; Renilla control light, replicate 1 = 1.71e6; Renilla control light, replicate 2 = 1.53e6; call = inactive
Tsp29Fa [DRSC28522]: firefly reporter light, replicate 1 = 3.79e5; firefly reporter light, replicate 2 = 6.98e5; Renilla control light, replicate 1 = 9.52e5; Renilla control light, replicate 2 = 1.82e6; call = inactive
Tnpo-SR [DRSC00546]: firefly reporter light, replicate 1 = 7.87e5; firefly reporter light, replicate 2 = 9.82e5; Renilla control light, replicate 1 = 2.21e6; Renilla control light, replicate 2 = 1.97e6; call = inactive
CG3349 [DRSC10359]: firefly reporter light, replicate 1 = 1.66e5; firefly reporter light, replicate 2 = 1.97e5; Renilla control light, replicate 1 = 1.43e6; Renilla control light, replicate 2 = 2.09e6; call = inactive
cnn [DRSC05422]: firefly reporter light, replicate 1 = 2.07e5; firefly reporter light, replicate 2 = 2.52e5; Renilla control light, replicate 1 = 7.45e5; Renilla control light, replicate 2 = 7.69e5; call = inactive
cnn [DRSC07596]: firefly reporter light, replicate 1 = 57007; firefly reporter light, replicate 2 = 83550; Renilla control light, replicate 1 = 1.73e6; Renilla control light, replicate 2 = 1.73e6; call = inactive
